Reference: PubChem BioAssay AID595 (National Center for Advancing Translational Sciences (NCATS), 2007)
Out of some 71,000 compounds screened, about 310 (0.44%) were called active. Inconclusive results, whose numbers are uncertain, are shown with a selection of clear calls. Calls follow the shape of the dose curve; as a rule, active = well fitted curve in either direction with a large enough effect; inconclusive = small, poorly fitted or top-dose-only effect, or another doubt; inactive = flat fitted curve, though single readings scatter. A potency beside an inconclusive call is a rough fit, not a confirmed value.

tested on: Hsp90 C-terminal peptide / TPR2A (Hop) interaction, human; assay: qHTS Assay for Disrupters of an Hsp90 Co-Chaperone Interaction; details: AlphaScreen TPR2A-His6 binding biotin-Hsp90 C-terminal peptide; activity change, negative = inhibition: at 57 µM (top of the series) unless noted
% is scaled to controls: 0 for no effect and ±100 for the full control effect; potency is read from the fitted curve at half-maximal effect.

SMILES | activity change, negative = inhibition | Potency
Cn1c(C(=O)N2CCC(C(=O)N3CCOCC3)CC2)cc2sccc21 | inconclusive: 42.8% | –
COc1cc(OC)c(OC)cc1CNc1cc(C)ccc1OC | – | inconclusive: 25.1 µM [inhibitor, partial curve]
Cc1cccc(CNc2ccnc(-c3ccoc3)n2)c1 | – | inconclusive: 15.8 µM [inhibitor, single point]
CCc1cccc(Nc2cc(C)nc3ncnn23)c1 | inactive | –
Cc1ccc(-c2noc(-c3ccccc3Br)n2)cc1 | – | inconclusive: 25.1 µM [activator, single point]
OCl | inconclusive: 39.8% | –
CN1CCN(C(=O)c2c(NC(=O)c3ccco3)sc3c2CCC(C(C)(C)C)C3)CC1 (configuration not stated) | inconclusive: 32% | –
CCOc1ccccc1NC(=O)c1cc(CC(C)C)oc1C | inconclusive: 159% | –
CCOC(=O)c1cc2sccc2n1CCCN1C(=O)c2ccccc2C1=O | – | inconclusive: 39.8 µM [activator, single point]
CC(=O)Nc1sc2c(c1C#N)CCCCC2 | inactive | –
O=C(NCc1ccc2c(c1)OCO2)c1cc2ncc(Br)cn2n1 | – | inconclusive: 25.1 µM [inhibitor, single point]
COc1ccc(OCCOC(=O)c2cccs2)cc1 | – | inconclusive: 31.6 µM [activator, single point]
c1csc(CNc2ccnc(-c3ccoc3)n2)c1 | – | inconclusive: 20 µM [inhibitor, partial curve]
N#Cc1nc(COc2ccccc2F)oc1N1CCCCCC1 | – | inconclusive: 7.94 µM [inhibitor, partial curve]
CCC(=O)/C=C1\Sc2ccc(OC)cc2N1CCO | inconclusive: 31.5% | –
COc1cc(NC(=O)c2ccccc2)c(OC)cc1NC(C)=O | inconclusive: 43.1% | –
COc1cccc2sc(Nc3nc(-c4ccccn4)cs3)nc12 | – | inconclusive: 15.8 µM [inhibitor, partial curve]
Clc1ccccc1-c1nn2c(Cn3cnc4ccccc43)nnc2s1 | inactive | –
CCOc1ccc(/C(O)=C2/C(=O)C(=O)N(CCOCCO)C2c2ccccc2)cc1 (configuration not stated) | inconclusive: 46.4% | –
Nc1nc(SCC(=O)N2CCc3ccccc3C2)[nH]c(=O)c1-c1ccccc1 | inactive | –
CCN(CC)CCNC(=O)c1ccc(NC(C)=O)cc1 | inconclusive: 71.2% | –

SMILES | activity change, negative = inhibition | Potency
CC(=O)Nc1ccc(NC2(C)C(=O)c3ccccc3C2=O)cc1 | inconclusive: 42.2% | –
CCn1nccc1C(=O)Nc1ccc(Cl)cc1Cl | inconclusive: 65.8% | –
CCCN(c1ccc(C(C)C)cc1)S(=O)(=O)c1c(C)noc1C | – | inconclusive: 25.1 µM [activator, single point]
COc1cccc(-c2nc(NCc3cccnc3)c3ccccc3n2)c1 | inactive | –
COc1cccc(-c2nc(NCc3ccccc3OC)c3ccccc3n2)c1 | – | inconclusive: 25.1 µM [activator, single point]
COc1cc(OC)c2c(C)c(Cl)c(=O)oc2c1 | inconclusive: 52% | –
COCc1cc(C)nc(N2CCN(c3ccccc3)CC2)c1C#N | inconclusive: 94.5% | –
Cc1nc2sc(C(c3ccco3)N3CCC(Cc4ccccc4)CC3)c(O)n2n1 (configuration not stated) | – | inconclusive: 39.8 µM [inhibitor, single point]
N[C@H](C(=O)O)[C@H](N)C(=O)O | inconclusive: 93.4% [at 11 µM] | –
O=C1c2cccnc2C(=O)N1Cc1ccccc1 | – | inconclusive: 31.6 µM [inhibitor, single point]
CCOC(=O)c1[nH]c(C)c(C(=O)Nc2ccc(C)c(C)c2)c1C | inconclusive: 54.1% | –
CCOC(=O)c1cc2occc2n1CC(=O)N1CCOCC1 | inactive | –
O=C(COC(=O)C1CCCO1)Nc1cccc(C(F)(F)F)c1 (configuration not stated) | inconclusive: 44.4% | –
CCOC(=O)c1nnn(-c2nonc2-n2cccc2)c1CN1CCC(C)CC1 | – | inconclusive: 25.1 µM [activator, single point]
COc1ccc(C(=O)NCc2cn3cccc(C)c3n2)cc1OC | inactive | –
CCC(C)NC(=O)C1c2ccccc2C(=O)N1Cc1cc(OC)ccc1OC (configuration not stated) | inconclusive: 28.5% | –
Nc1nn(S(=O)(=O)c2cccc3nsnc23)cc1-c1ccc(Br)cc1 | – | inconclusive: 25.1 µM [inhibitor, partial curve]
CN(C)C(=O)CSc1cccc2cccnc12 | – | inconclusive: 31.6 µM [inhibitor, partial curve]
COCCN(CCOC)c1ncc(Cl)c(C(=O)c2c(C)cc3ccccn23)n1 | inactive | –
Cc1cc(N2CCOCC2)n2nc(C)c(-c3ccccc3)c2n1 | inconclusive: 58.1% | –
COc1ccc(NC(=O)CSc2nc3c(c(=O)n2-c2ccc(F)cc2)SCC3)c(OC)c1 | inconclusive: 29.3% | –

SMILES | activity change, negative = inhibition | Potency
Cc1ccc(C(=O)[C@@H]2[C@@H]3[C@@H](C(=O)[C@@H]4OC[C@H]3O4)[C@@H]3C=Cc4ccccc4N23)cc1 | – | inconclusive: 39.8 µM [inhibitor, partial curve]
Cc1cc(N2CCCCCC2)nc(-c2ccccc2O)n1 | – | inconclusive: 25.1 µM [activator, single point]
COc1cc(OC)cc(-c2nnc(SCc3c(F)cccc3Cl)o2)c1 | – | inconclusive: 25.1 µM [activator, single point]
Fc1ccc(CNc2nc(-c3ccco3)cc(C(F)(F)F)n2)cc1 | – | inconclusive: 31.6 µM [activator, single point]
c1ccc(-c2nnn(C34CC5CC(CC(C5)C3)C4)n2)cc1 | – | inconclusive: 31.6 µM [activator, single point]
COc1ccc(Cl)cc1CN1CCN(c2nc(C)cc(C)c2C#N)CC1 | – | inconclusive: 31.6 µM [activator, single point]
O=c1cc(-c2cccc(O)c2O)oc2ccccc12 | – | inconclusive: 39.8 µM [inhibitor, single point]
O=C1c2ccccc2C(=O)N1C[C@]1(C(=O)O)NCCS1(=O)=O | inactive: -1.09% [at 11 µM] | –
CCOC(=O)c1c(C)c(C(=O)NCc2ccccn2)c(C)n1CC | – | inconclusive: 25.1 µM [inhibitor, partial curve]
Cc1nn2c(N3CCCC3)cc(C(C)C)nc2c1-c1ccccc1 | – | inconclusive: 3.16 µM [activator, single point]
COc1ccccc1N1CCN(C(=O)Cc2cccs2)CC1 | inconclusive: 39.6% [at 11 µM] | –
O=C(CN1CCOc2ccccc21)NCc1ccco1 | inconclusive: 45.7% | –
CN(C)c1ccc2c(c1)OC(N)=C(C#N)C2c1cccc(F)c1 (configuration not stated) | inactive | –
CCc1ccc(NC(=O)c2cc(C(C)C)on2)cc1 | inactive | –
Cc1cc(C)nc(SCC(=O)N2CCCCC2)n1 | inconclusive: 45.6% | –
COC(=O)c1cc2c(s1)-c1ccccc1OC2 | – | inconclusive: 25.1 µM [activator, single point]
COC(=O)C1=C(C)OC(N)=C(C#N)C1C1CCCCC1 (configuration not stated) | inactive | –
Cc1ccc(-c2nc3cccnc3o2)cc1NC(=O)COc1ccc(Cl)cc1C | inconclusive: 35.9% | –
CCCCCCCC/C=C\CCCCCCCC(=O)NCc1ccc(O)c(OC)c1 | inactive | –
COCCn1c(=O)c(C)nc2cnc(Nc3cccc(OC)c3)nc21 | inactive | –
N=C1C=CC=C2C1=NC1(CCCCC1)N2O | – | inconclusive: 25.1 µM [inhibitor, partial curve]

SMILES | activity change, negative = inhibition | Potency
CCOC(=O)c1ccc2[nH]c(C)c(CN3CCN(C)CC3)c(=O)c2c1 | inconclusive: 55.9% | –
Cn1c(=O)c2cc(S(=O)(=O)Nc3ccc4c(c3)OCO4)ccc2n(C)c1=O | inactive | –
CCSc1nc2c(c(=O)n1Cc1ccccc1)SC(C)C2 (configuration not stated) | inconclusive: 31.2% | –
CC1(C)Cc2ccccc2-c2nnc(-c3cccnc3)n21 | inconclusive: 44.7% | –
Cn1c(=O)c(C(=O)CN2CCCc3ccccc32)c(N)n(Cc2ccccc2)c1=O | – | inconclusive: 25.1 µM [inhibitor, single point]
CCCCC[C@H](CC(=O)NO)C(=O)N[C@@H](C(=O)N1CCC[C@H]1CO)C(C)C | inconclusive: 64.7% | –
C=CCn1c(SCC(=O)c2ccc(OC)cc2)nnc1C(C)NC(=O)c1cccs1 (configuration not stated) | inconclusive: 31.7% | –
O=C(NCc1nnc(SCC(=O)N2CCCCCC2)o1)c1ccco1 | inconclusive: 47.1% | –
COc1ccc(S(=O)(=O)N2CCN(C)CC2)cc1C | inconclusive: 46.8% [at 2.3 µM] | –
CCOC(=O)c1cnc(-n2nc(C)cc2C)nc1N(C)C | – | inconclusive: 12.6 µM [inhibitor, partial curve]
Clc1ccc2c(c1)N=C(N1CCNCC1)c1ccccc1N2 | inactive | –
O=C(NCCCN1CCOCC1)c1cc(-c2ccc3c(c2)OCO3)nc2ccccc12 | inactive: -4.94% [at 2.3 µM] | –
COCCn1c(=O)c(-c2cccs2)nc2cnc(Oc3ccccc3)nc21 | – | inconclusive: 20 µM [activator, single point]
Cc1nc(N2CCOCC2)c2nc(-c3ccccc3)n(CCCN(C)C)c2n1 | inactive | –
O=c1c(-c2ccccc2)nc2cnc(N3CCNCC3)nc2n1Cc1ccc(F)cc1 | inactive | –
CN(CCO)C(=O)CCC(=O)Nc1ccc(S(N)(=O)=O)cc1 | inactive | –
CC#C[C@@]1(O)CC[C@H]2[C@@H]3CCC4=CC(=O)CCC4=C3[C@H](c3ccc(N(C)C)cc3)C[C@]21C | – | inconclusive: 15.8 µM [inhibitor, partial curve]
CCCCc1ccc(C2C(C#N)=C(N)SC(N)=C2C#N)s1 | inactive: -10.7% [at 11 µM] | –
CCN(CC)CCCC(C)n1c(-c2ccccc2)nc2c(N3CCOCC3)nc(C)nc21 (configuration not stated) | inactive | –

Already shown: an excerpt of the list.
SMILES | activity change, negative = inhibition | Potency
O=C(NCCCN1CCOCC1)c1cc(-c2ccc3c(c2)OCO3)nc2ccccc12 | inactive: -4.94% [at 2.3 µM] | –
COCCn1c(=O)c(-c2cccs2)nc2cnc(Oc3ccccc3)nc21 | – | inconclusive: 20 µM [activator, single point]
Cc1nc(N2CCOCC2)c2nc(-c3ccccc3)n(CCCN(C)C)c2n1 | inactive | –
O=c1c(-c2ccccc2)nc2cnc(N3CCNCC3)nc2n1Cc1ccc(F)cc1 | inactive | –
